Experimental findings from patent publication US6506889 (UNIVERSITY TECHNOLOGY, dated 2003) are described below.

No constants are given. Whether binding was seen depends on the method and setting. For some of these results: Binding calls can cover weak binding; strength is not graded here. Tags and fused reporters may be left off the sequences shown.

Experiment [1] deals with LET-60 Ras with deletion of the membrane targeting region, yeast two-hybrid fusion. Put plainly: yeast two-hybrid.
Experiment [2] concerns the target KSR-1 (yeast two-hybrid fusion) (C. elegans). Put plainly: yeast two-hybrid.
Experiment [3] shares this target. Put plainly: yeast two-hybrid, His and LacZ reporters.

B1: wild type LIN-45 Raf (yeast two-hybrid fusion) (enzyme, C. elegans, UniProt Q07292 1-813, looked up, not shown: large carriers)
chain: MSRINFKKSSASTTPTSPHCPSPRLISLPRCASSSIDRKDQASPMASPSTPLYPKHSDSLHSLSGHHSAGGAGTSDKEPPKFKYKMIMVHLPFDQHSRVEVRPGETARDAISKLLKKRNITPQLCHVNASSDPKQESIELSLTMEEIASRLPGNELWVHSEYLNTVSSIKHAIVRRTFIPPKSCDVCNNPIWMMGFRCEFCQFKFHQRCSSFAPLYCDLLQSVPKNEDLVKELFGIASQVEGPDRSVAEIVLANLAPTSGQSPAATPDSSHPDLTSIKRTGGVKRHPMAVSPQNETSQLSPSGPYPRDRSSSAPNINAINDEATVQHNQRILDALEAQRLEEESRDKTGSLLSTQARHRPHFQSGHILSGARMNRLHPLVDCTPLGSNSPSSTCSSPPGGLIGQPTLGQSPNVSGSTTSSLVAAHLHTLPLTPPQSAPPQKISPGFFRNRSRSPGERLDAQRPRPPQKPHHEDWEILPNEFIIQYKVGSGSFGTVYRGEFFGTVAIKKLNVVDPTPSQMAAFKNEVAVLKKTRHLNVLLFMGWVREPEIAIITQWCEGSSLYRHIHVQEPRVEFEMGAIIDILKQVSLGMNYLHSKNIIHRDLKTNNIFLMDDMSTVKIGDFGLATVKTKWTVNGGQQQQQPTGSILWMAPEVIRMQDDNPYTPQSDVYSFGICMYEILSSHLPYSNINNRDQILFMVGRGYLRPDRSKIRHDTPKSMLKLYDNCIMFDRNERPVFGEVLERLRDIILPKLTRSQSAPNVLHLDSQYSVMDAVMRSQMLSWSYIPPATAKTPQSAAAAAAANKKAYYNVYGLI
B1: the binding result in experiment [1] is on record as “binds”.

B2: C. elegans SUR-8 fused to the GAL4 activation domain (other, not shown: large carriers)
chain: METSKEFEFRPAKETSRSKSPGGIVGRLSNFARNKARHSLSEKGSNSVGGSGGAGFDKPRKDLLKEFHKCKEAQDQRLDLSSIEITSIPSPIKELTQLTELFLYKNKLTCLPTEIGQLVNLKKLGLSENALTSLPDSLASLESLETLDLRHNKLTEVPSVIYKIGSLETLWLRYNRIVAVDEQIGNLSKLKMLDVRENKIRELPSAIGKLTSLVVCLVSYNHLTRVPEEIGDCHSLTQLDLQHNDLSELPYSIGKLVNLVRIGIRYNKIRCIPSELESCQQLEEFIVESNHLQLLPPNLLTMLPKIHTVNLSRNELTAFPAGGPQQFVSTVTINMEHNQISKIPIGIFSKATRLTKLNLKENELVSLPLDMGSWTSITELNLSTNQLKVLPEDIEKLVNLEILVLSNNQLKKLPNQIGNLNKLRELDLEENELETVPTEIGFLQHLTKLWVQSNKILTLPRSIGNLCSLQDLRLGENNLTAIPEEIGHLDSLKSLYLNDNSSLHNLPFELALCQSLEIMSIENSPLSQIPPEITAGGPSLVIQYLKMQGPYRGVVMNSQ
notes: Yeast two-hybrid construct: 1.7 kb sur-8 cDNA cloned in-frame into pACT2; also called Ce SUR-8; wild-type SUR-8
Turning to B2, the binding entry is listed as “binds” in experiment [1], “no binding” in experiment [2] and “no binding” in experiment [3].
